# PubChem BioAssay AID1224828 | NIAID – 2016
# Purpose: 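Find genes required for NF-kappaB p65 moving into the nucleus after LPS in mouse macrophages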 (primary screen)
# System: mouse RAW264.7 G9 macrophage reporter cells (GFP-p65, Tnf promoter-mCherry)
# Knock-down reagent: siRNA pool against mouse genes, 100 nM
# Duration: 2 days siRNA transfection, then 40 min LPS before fixation
# Conditions: LPS (Salmonella minnesota R595) at 10 ng/ml
# Measurement: 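Imaged p65 nuclear translocation ratio, normalised to the plate median, converted to robust z-scores and averaged across two replicates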
# Reading the numbers: p65 translocation robust z-score: higher = more nuclear NF-kappaB p65 after LPS than the plate median; nuclear/cytoplasmic p65 ratio: higher = more nuclear NF-kappaB p65
# Call rule: 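Active if robust z is above 3.3 (negative regulators) or below -1.56, the Tlr4 control median (positive regulators); activity score 50 or more; control wells not called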
# Meaning of the calls: active = hit (p65 shift raised or lowered); inactive = no clear change
# In all, the deposit lists about 17,000 reagents; this is a random part of them. 762 of them (4.5%) were called active. 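Active calls include both raised and lowered p65 entry, mostly lowered; wells with fewer than 50 cells lack a z-score.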 Raw values vary from plate to plate and are shown uncorrected. Entries without a mark were called inactive. The numbers tell different reagents against one gene apart.
gene symbol,pool no.,p65 translocation robust z-score,"nuclear/cytoplasmic p65 ratio, rep 1","nuclear/cytoplasmic p65 ratio, rep 2",low cell count flag
Or14j2 (olfactory receptor family 14 subfamily J member 2),1,,1.55,1.3,fewer than 50 cells per well; well left out of scoring
Smg6 (SMG6 nonsense mediated mRNA decay factor),1,-0.11,1.71,1.52,enough cells to score
Treml6 (triggering receptor expressed on myeloid cells-like 6),1,1.19,1.77,2.03,enough cells to score
Dok7 (docking protein 7),1,,1.35,1.42,fewer than 50 cells per well; well left out of scoring
Nipbl (NIPBL cohesin loading factor),1,0.06,1.29,1.42,enough cells to score
Nipbl (NIPBL cohesin loading factor),2,0.63,1.44,1.6,enough cells to score
Hlcs,1,1.49,1.64,1.56,enough cells to score
"Scnn1g (sodium channel, nonvoltage-gated 1 gamma)",1,1.24,1.61,1.85,enough cells to score
Scaf8 (SR-related CTD-associated factor 8),1,0.64,1.4,1.37,enough cells to score
Scaf8 (SR-related CTD-associated factor 8),2,0.88,1.54,1.6,enough cells to score
Or6c66 (olfactory receptor family 6 subfamily C member 66),1,,1.4,1.06,fewer than 50 cells per well; well left out of scoring
Ccr3 (C-C motif chemokine receptor 3),1,0.61,1.59,1.54,enough cells to score
"Celf3 (CUGBP, Elav-like family member 3)",1,0.84,1.46,1.29,enough cells to score
Alx3 (aristaless-like homeobox 3),1,-0.44,1.58,1.52,enough cells to score
"Mapre2 (microtubule-associated protein, RP/EB family, member 2)",1,-0.44,1.39,1.29,enough cells to score
Spata20 (spermatogenesis associated 20),1,,1.6,1.14,fewer than 50 cells per well; well left out of scoring
Cfap161 (cilia and flagella associated protein 161),1,,1.26,1.16,fewer than 50 cells per well; well left out of scoring
Cep170 (centrosomal protein 170),1,0.33,1.66,1.67,enough cells to score
Ccnc (cyclin C),1,,1.67,1.47,fewer than 50 cells per well; well left out of scoring
"Qki (quaking, KH domain containing RNA binding)",1,0.53,1.43,1.29,enough cells to score
Ptcd3 (pentatricopeptide repeat domain 3),1,,1.24,1.41,fewer than 50 cells per well; well left out of scoring
Mrps2 (mitochondrial ribosomal protein S2),1,0.34,1.9,1.59,enough cells to score
Ubqlnl (ubiquilin-like),1,,1.02,1.08,fewer than 50 cells per well; well left out of scoring
Kcna2,1,-0.61,1.38,1.31,enough cells to score
Riox2 (ribosomal oxygenase 2),1,0.97,1.83,1.72,enough cells to score
Gzf1 (GDNF-inducible zinc finger protein 1),1,-0.3,1.38,1.21,enough cells to score
Cct7 (chaperonin containing TCP1 subunit 7),1,0.18,1.64,1.4,enough cells to score
"Rbp4 (retinol binding protein 4, plasma)",1,-0.27,1.54,1.42,enough cells to score
"Sec23a (SEC23 homolog A, COPII coat complex component)",1,0.28,1.48,1.26,enough cells to score
Or5w17 (olfactory receptor family 5 subfamily W member 17),1,-0.58,1.66,1.41,enough cells to score
Vmn1r64 (vomeronasal 1 receptor 64),1,,1.36,1.21,fewer than 50 cells per well; well left out of scoring
Dmrta2,1,-0.18,1.43,1.35,enough cells to score
Popdc3 (popeye domain containing 3),1,2.36,1.66,1.5,enough cells to score
Nod2 (nucleotide-binding oligomerization domain containing 2),1,0.97,1.78,1.74,enough cells to score
9930014A18Rik (RIKEN cDNA 9930014A18 gene),1,0.14,1.39,1.63,enough cells to score
Asah2 (N-acylsphingosine amidohydrolase 2),1,-1.09,1.36,1.44,enough cells to score
Cfap65 (cilia and flagella associated protein 65),1,0.66,1.72,1.58,enough cells to score
Bend3 (BEN domain containing 3),1,-1.41,1.3,1.56,enough cells to score
Kank2 (KN motif and ankyrin repeat domains 2),1,-0.13,1.63,1.61,enough cells to score
Sh2b2 (SH2B adaptor protein 2),1,-1.05,1.5,1.42,enough cells to score
Exosc10 (exosome component 10),1,0.21,1.72,1.41,enough cells to score
Nphp3 (nephronophthisis 3 (adolescent)),1,,1.08,1.33,fewer than 50 cells per well; well left out of scoring
Gckr (glucokinase regulatory protein),1,0.19,1.43,1.43,enough cells to score
Snx4 (sorting nexin 4),1,-0.56,1.32,1.19,enough cells to score
Cd2ap (CD2-associated protein),1,0.71,1.58,1.46,enough cells to score
"Tgfb3 (transforming growth factor, beta 3)",1,-0.72,1.46,1.38,enough cells to score
Dnajb3 (DnaJ heat shock protein family (Hsp40) member B3),1,0.04,1.41,1.42,enough cells to score
Pira4 (paired-Ig-like receptor A4),1,1.22,1.52,1.37,enough cells to score
Parm1 (prostate androgen-regulated mucin-like protein 1),1,-0.98,1.34,1.36,enough cells to score
Pdxdc1 (pyridoxal-dependent decarboxylase domain containing 1),1,-1.07,1.08,1.38,enough cells to score
"Abl2 (ABL proto-oncogene 2, non-receptor tyrosine kinase)",1,-0.88,1.58,1.27,enough cells to score
Rnf40 (ring finger protein 40),1,,1.3,1.03,fewer than 50 cells per well; well left out of scoring
Or8b43 (olfactory receptor family 8 subfamily B member 43),1,-0.05,1.25,1.26,enough cells to score
Plekhm3 (pleckstrin homology and RUN domain containing M3),1,-0.02,1.51,1.46,enough cells to score
Arl15 (ADP-ribosylation factor-like 15),1,0.76,1.53,1.8,enough cells to score
Or6k8 (olfactory receptor family 6 subfamily K member 8),1,0.23,1.41,1.3,enough cells to score
"Col4a3 (collagen, type IV, alpha 3)",1,0.72,1.53,1.5,enough cells to score
Pla2r1 (phospholipase A2 receptor 1),1,-0.47,1.46,1.32,enough cells to score
"Ncapd3 (non-SMC condensin II complex, subunit D3)",1,-1.31,1.47,1.26,enough cells to score
"Man1a (mannosidase 1, alpha)",1,-1.37,1.51,1.4,enough cells to score
Jam2 (junction adhesion molecule 2),1,0.35,1.53,1.54,enough cells to score
Krtap13-20 (keratin associated protein 13-20),1,,1.59,1.39,fewer than 50 cells per well; well left out of scoring
Vmn1r212 (vomeronasal 1 receptor 212),1,0.29,1.31,1.26,enough cells to score
Kcnc3,1,0.14,1.56,1.34,enough cells to score
Nrf1 (nuclear respiratory factor 1),1,-0.5,1.36,1.37,enough cells to score
Barhl1 (BarH like homeobox 1),1,-0.2,1.39,1.81,enough cells to score
Abhd8 (abhydrolase domain containing 8),1,-0.96,1.49,1.45,enough cells to score
"Vkorc1l1 (vitamin K epoxide reductase complex, subunit 1-like 1)",1,,1.13,1.13,fewer than 50 cells per well; well left out of scoring
Kcnc1,1,0.51,1.6,1.4,enough cells to score
Kcnc1,2,,1.43,1.65,fewer than 50 cells per well; well left out of scoring
"Ms4a4c (membrane-spanning 4-domains, subfamily A, member 4C)",1,0.68,1.86,1.72,enough cells to score
Ccdc92 (coiled-coil domain containing 92),1,-0.83,1.43,1.45,enough cells to score
Arfgap1 (ARF GTPase activating protein 1),1,1.73,1.81,1.95,enough cells to score
Clmn (calmin),1,0.31,1.78,1.69,enough cells to score
Ice2 (interactor of little elongation complex ELL subunit 2),1,1.82,1.68,1.58,enough cells to score

Reprinted from above (11 entries):
gene symbol,pool no.,p65 translocation robust z-score,"nuclear/cytoplasmic p65 ratio, rep 1","nuclear/cytoplasmic p65 ratio, rep 2",low cell count flag
Vmn1r212 (vomeronasal 1 receptor 212),1,0.29,1.31,1.26,enough cells to score
Kcnc3,1,0.14,1.56,1.34,enough cells to score
Nrf1 (nuclear respiratory factor 1),1,-0.5,1.36,1.37,enough cells to score
Barhl1 (BarH like homeobox 1),1,-0.2,1.39,1.81,enough cells to score
Abhd8 (abhydrolase domain containing 8),1,-0.96,1.49,1.45,enough cells to score
"Vkorc1l1 (vitamin K epoxide reductase complex, subunit 1-like 1)",1,,1.13,1.13,fewer than 50 cells per well; well left out of scoring
Kcnc1,1,0.51,1.6,1.4,enough cells to score
Kcnc1,2,,1.43,1.65,fewer than 50 cells per well; well left out of scoring
"Ms4a4c (membrane-spanning 4-domains, subfamily A, member 4C)",1,0.68,1.86,1.72,enough cells to score
Ccdc92 (coiled-coil domain containing 92),1,-0.83,1.43,1.45,enough cells to score
Arfgap1 (ARF GTPase activating protein 1),1,1.73,1.81,1.95,enough cells to score
